# PubChem BioAssay AID2685 (National Center for Advancing Translational Sciences (NCATS), 2010)
# The whole screen tested about 320,000 compounds, of which about 2,100 (0.66%) were called active. This list was built around the results that the source calls inconclusive (neither active nor inactive); the mix of calls is not that of the screen. Calls follow the shape of the dose curve; as a rule, active = well fitted inhibition curve with a large enough effect in the signal ratio, with a control signal flat (not every such curve was filed as active); inconclusive = small, poorly fitted or top-dose-only effect, or effect the other way, or a change in a side signal; inactive = flat fitted curve, though single readings scatter; the % refers to the signal ratio. A potency beside an inconclusive call is a rough fit, not a confirmed value.
# Assay: qHTS Assay for Lipid Storage Modulators in Drosophila S3 Cells
# Details: BODIPY lipid droplet fluorescence, 18-24 h, cells fed with added oleic acid; lipid storage change, negative = inhibition: at 46.1 µM (top of the series) unless noted
# How it was run: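 Drosophila S3 cells got compounds at several concentrations plus oleic acid (400 uM solution). Laser-scanning cytometry with 488 nm excitation read lipid droplets at 500-530 nm and cells at 575-640 nm. Percent activity was relative to 20 uM Triacsin C.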
# % is scaled to controls: 0 for no effect and ±100 for the full control effect; potency is read from the fitted curve at half-maximal effect.
SMILES,"lipid storage change, negative = inhibition",Potency
COc1ccc(S(=O)(=O)N2CCCCC2)cc1NC(=O)CNc1ccc(F)cc1C,inactive,–
CCOC(=O)c1ccc2nc(NC(NC(C)=O)(C(=O)OC)C(F)(F)F)sc2c1 (centres undefined),–,"inconclusive: 0.82 µM [falling, single point]"
CSc1nsc(SCC(=O)Nc2ccc3c(c2)OCCO3)n1,–,"inconclusive: 3.26 µM [activator, partial curve]"
Cc1ccc(C(=O)NC2CCN(C(=O)Nc3ccccc3)CC2)cc1,–,"inconclusive: 29.1 µM [activator, single point]"
CCOC(=O)N1CCN(c2nc3ccc(C)cc3n3cnnc23)CC1,–,"inconclusive: 1.84 µM [activator, partial curve]"
Cc1nn(-c2ccccc2)c(=S)n1-c1ccccc1,–,active: 32.6 µM
O=C(/C=C/c1ccccc1Cl)Nc1cccnc1,–,"inconclusive: 18.4 µM [falling, single point]"
CCOC(=O)CN1C(=O)C2(OCCCO2)c2cc(Br)ccc21,inactive,–
Cc1cc(C)nc(SCC(=O)N/N=C/c2cccnc2)n1,–,"inconclusive: 0.146 µM [falling, partial curve, poor fit]"
COc1cccc(CCNC(=O)c2cccc(NC(=O)C3=C(C)OCCS3)c2)c1,–,"inconclusive: 6.51 µM [falling, single point]"
COc1c(F)c(F)c(C(=O)Nc2ccc3oc(-c4ccncc4)nc3c2)c(F)c1F,–,"inconclusive: 0.146 µM [activator, full curve, poor fit]"
CC(C)CCN1CCN(CCCc2ccccc2)CC1CCO (centres undefined),inconclusive: -8%,–
COc1cccc(S(=O)(=O)NCc2ccc(C(=O)N3CCN(c4ccccc4)CC3)cc2)c1,–,"inconclusive: 0.0041 µM [falling, full curve, poor fit]"
COc1ccc2c(c1OC)C(=O)N1C2SC(C)(C)[C@H]1C(=O)NC1CC1 (some centres undefined),inconclusive: -72.6%,–
C=CCNCCOc1ccccc1-c1ccccc1,inconclusive: -2.08%,–
COc1ccccc1C(=O)Nc1ccc(N2CCN(S(C)(=O)=O)CC2)cc1,inconclusive: 25.5%,–
O=C(Nc1ccc(F)c(Cl)c1)Nc1ccc(Cl)cn1,inconclusive: -10.8%,–
Cc1nc(C)c(-c2ccc(SCC(=O)Nc3cccc(Cl)c3)nn2)s1,inconclusive: -77.3%,–
COCc1cc(C(C)=O)ccc1OC,inconclusive: 20.1%,–
O=C(O)C1C2CCC(C2)C1C(=O)Nc1nc2ccccc2s1 (centres undefined),inconclusive: -69.4%,–
COc1cccc(-c2nc(-c3ccccc3)no2)c1,–,"inconclusive: 10.3 µM [activator, partial curve]"
CS(=O)(=O)N(CC(=O)Nc1ccccc1-c1ccccc1)c1ccc(F)cc1,inconclusive: 21%,–
O=c1c2cnn(-c3ccccc3)c2ncn1Cc1ccccc1,inactive,–
O=[N+]([O-])c1ccc(C2CN=C(Nc3ccccc3)S2)cc1 (centres undefined),inconclusive: 14.3%,–
COc1cccc(NC(=O)CN2C(=O)NC(CCc3ccccc3)C2=O)c1 (centres undefined),–,"inconclusive: 29.1 µM [activator, single point]"

SMILES,"lipid storage change, negative = inhibition",Potency
Cn1c2ccccc2c(=O)c2ccc(C#Cc3ccccn3)cc21,–,active: 14.6 µM
COc1ccc2cc(C)c3nnc(SCC(=O)Nc4nc(-c5ccccc5)cs4)n3c2c1,–,"inconclusive: 0.326 µM [falling, full curve]"
CCCCC[C@]12Cc3cc(OC)c(OC)cc3C(O1)c1c(cc(C)n(-c3ccccc3)c1=O)O2,inactive: -5.41% [at 9.22 µM],–
COC(=O)C1CC(Cl)CN1c1ncc(C(F)(F)F)cc1Cl (centres undefined),inconclusive: 7.24%,–
Fc1cccc(F)c1-n1c(CN2CCOCC2)csc1=S,inconclusive: 7.72%,–
O=C(CCCSc1nc2ccccc2s1)NCc1ccco1,inconclusive: 6.83% [at 9.22 µM],–
CCOc1ccc(C2/C(=C(/O)c3ccc(Cl)cc3)C(=O)C(=O)N2CCCN(C)C)cc1OC (centres undefined),inconclusive: 6.33%,–
COc1ccc(NS(=O)(=O)c2ccc(NC(=S)NCC3CCCO3)cc2)cc1 (centres undefined),inconclusive: -25.2%,–
O=C(CCN1C(=O)c2ccccc2C1=O)NC(=S)Nc1ccccc1Cl,inconclusive: 21.3%,–
CC(C)CC(=O)C1=C(O)C(=O)N(Cc2ccccc2)C1c1ccccc1 (centres undefined),–,"inconclusive: 3.26 µM [activator, partial curve, poor fit]"
COC(=O)c1ccc2c(=O)n(CCCCCC(=O)N3CCN(c4ccccc4)CC3)c(=O)[nH]c2c1,inconclusive: -1.19%,–
CCC(C(=O)NC1C(=O)N2C(C(=O)O)=C(CSc3nnc(C)s3)CSC12)c1ccccc1 (centres undefined),–,"inconclusive: 29.1 µM [activator, single point]"
COCCN(C(=O)COC(=O)Cc1ccc(Cl)cc1Cl)c1c(N)n(Cc2ccccc2)c(=O)[nH]c1=O,inconclusive: 15.1%,–
Cc1ccc(OCCCC(=O)Nc2nccs2)cc1,inconclusive: -2.79%,–
O=C(Nc1ccsn1)c1ccc(Cl)cc1Cl,inconclusive: 11%,–
CCOC(=O)N1CCN(C(=O)Nc2ccc3nc(C)sc3c2)CC1,–,"inconclusive: 16.4 µM [activator, single point]"
O=C(O)C(c1ccccc1)N1CCCCC1 (centres undefined),inconclusive: -22.1%,–
Cc1ccc(S(=O)(=O)Nc2cc3c4c(c2)C(C)C(=O)N4CCC3)cc1 (centres undefined),inconclusive: -30% [at 0.0737 µM],–
N#CN=C(c1ccccc1)c1ccccc1,–,"inconclusive: 20.6 µM [falling, partial curve, poor fit]"
Cc1ccccc1SCC(=O)NNC(=O)c1ccncc1,inconclusive: 29.3%,–
CC(=O)c1ccc(NC(=O)CSC(C)C)cc1,–,"inconclusive: 5.17 µM [falling, partial curve, poor fit]"
CC(=O)NC1(C(F)(F)F)C(=O)Nc2c1c(=O)[nH]c(=O)n2CC(C)C (centres undefined),inconclusive: 32.5%,–
NC(N)=NS(=O)(=O)c1ccc(N)cc1,inconclusive: -1.2%,–
O=C(C1CCN(S(=O)(=O)c2cccc3nsnc23)CC1)N1CCc2ccccc21,inconclusive: -32%,–
CCOC(=O)CSc1ccc2nnc(CCNS(=O)(=O)c3ccccc3)n2n1,inconclusive: 6.7%,–

# Rewritten with bars between the fields: entries from further up
SMILES | lipid storage change, negative = inhibition | Potency
O=C(CCN1C(=O)c2ccccc2C1=O)NC(=S)Nc1ccccc1Cl | inconclusive: 21.3% | –
CCC(C(=O)NC1C(=O)N2C(C(=O)O)=C(CSc3nnc(C)s3)CSC12)c1ccccc1 (centres undefined) | – | inconclusive: 29.1 µM [activator, single point]
CC(=O)NC1(C(F)(F)F)C(=O)Nc2c1c(=O)[nH]c(=O)n2CC(C)C (centres undefined) | inconclusive: 32.5% | –

# Carrying on:

SMILES,"lipid storage change, negative = inhibition",Potency
O=C(/C=C/c1cccc([N+](=O)[O-])c1)Nc1ccc(NC(=O)c2cccs2)cc1,inactive,–
CCn1c(SCC(=O)Nc2cc(Cl)ccc2OC)nnc1C1CC1,inconclusive: 370%,–
O=C(N/N=C/c1ccccc1OC(=O)c1ccc2c(c1)OCO2)c1cccc(F)c1,–,"inconclusive: 1.64 µM [activator, full curve, poor fit]"
CCCN(CCC)c1nc(Cl)nc(NCCN2CCOCC2)n1,inconclusive: -41%,–
Cc1nn(Cc2ccccc2)c(C)c1C(=O)N1CCN(S(=O)(=O)/C=C/c2ccccc2)CC1,inconclusive: -9.74%,–
CCCOc1cccc(C2C(C(=O)c3ccco3)=C(O)C(=O)N2CCN(CC)CC)c1 (centres undefined),inconclusive: -73.3%,–
CCOc1ccc(C(=O)CCNC(Cc2cnc[nH]2)C(=O)O)cc1 (centres undefined),inconclusive: -1.44%,–
Cc1csc(C(C)N(C)C(=O)c2ccc(OC3CCN(Cc4ccccn4)CC3)cc2)n1 (centres undefined),–,"inconclusive: 29.1 µM [falling, single point]"
Nc1nc(Sc2ccc([N+](=O)[O-])cc2[N+](=O)[O-])n[nH]1,–,"inconclusive: 1.46 µM [falling, full curve, poor fit]"
CC(C)OC(=O)CSc1nnc(Cc2ccccc2)n1C,inconclusive: 1.78%,–
Cc1ccc(S(=O)(=O)N2CCCCC2)cc1NC(=O)COC(=O)c1ccc2c(c1)OCO2,–,"inconclusive: 4.61 µM [activator, partial curve, poor fit]"
COc1ccc(OC)c(NC(=O)Nc2cc(NC(=O)Nc3cc(OC)ccc3OC)c(C)nc2C)c1,inconclusive: -3.19%,–
O=C(CN1CCN(S(=O)(=O)c2cc(C(F)(F)F)ccc2Cl)CC1)N1CCc2ccccc2C1,inconclusive: 11.7%,–
Cc1nonc1C1CCCN1C(=O)c1cc(COc2cccc(C(F)(F)F)c2)on1 (centres undefined),–,"inconclusive: 3.26 µM [activator, partial curve]"
CC1CCN(C(=O)CSc2nnc(-c3cccnc3)n2C2CCCCC2)CC1,–,"inconclusive: 6.51 µM [activator, single point]"
O=C(CCC(=O)N1CCN(Cc2ccc(F)cc2)CC1)Nc1nnc(C2CCCCC2)s1,inconclusive: -23.5%,–
CN(C(=O)COC(=O)CNC(=O)c1sc2ccccc2c1Cl)c1ccccc1,–,"inconclusive: 7.31 µM [rising, single point]"
COC(=O)/C(=C\c1ccc(O)cc1)c1nc2ccccc2[nH]1,–,"inconclusive: 6.51 µM [rising, single point]"
CC1CCN(C(=O)CCc2nnc3ccc(NCc4ccco4)nn23)CC1,–,"inconclusive: 0.411 µM [falling, single point]"
COc1ccccc1C(=O)N1CCC(C(=O)c2ccc(F)cc2)CC1,inconclusive: 5.71%,–
CCCn1nc(C(=O)Nc2cccc(C(=O)OC)c2)c2ccccc2c1=O,–,"inconclusive: 11.6 µM [activator, partial curve]"
CCC(NS(=O)(=O)c1ccc(C)cc1)C(=O)Nc1ccc(NC(C)=O)cc1 (centres undefined),–,"inconclusive: 13 µM [activator, single point]"
O=C(NCC(c1ccccc1Cl)N1CCCC1)C1CCN(C(=O)Nc2ccccc2)CC1 (centres undefined),–,active: 6.51 µM
O=C(NCc1ccc(Cl)cc1)c1ccc2c(=O)n(CC3CCCO3)c(=S)[nH]c2c1 (centres undefined),inconclusive: -7.95%,–
